Assay results: patent EP0606804B1, “Marker for neurotensin receptor” (MARTINEX R & D INC., priority 1992, dated 2001)
Not every detail of the peptide structures is certain; ends, links or a residue may be inferred.

Key:
Stability / shelf life = assay type: physicochemical
[1] = test system: SN6 cholinergic hybrid cells; assay: Flow cytometric analysis of fluoro-neurotensin binding to cholinergic hybrid cells; assay type: cell-based, murine; details: at both 4°C and 20°C, 1 hour incubation, non-specific with 100-fold excess of unlabeled neurotensin
neurotensin receptor = assay: Competitive binding assay (displacement of 125I-Tyr3-neurotensin on brain membranes); set-up: species or system mice
neurotensin receptors = assay: In vitro labeling of neurotensin receptors on rat brain tissue sections; assay type: binding; details: rat substantia nigra / ventral tegmental sections; 10^-4-10^-6 M; 4°C, 60 minutes; 1000-fold excess of unlabeled ligand

For `CC[C@H](C)[C@H](NC(=O)[C@H](Cc1ccc(O)cc1)NC(=O)[C@@H]1CCCN1C(=O)[C@H](CCCNC(=N)N)NC(=O)[C@H](CCCNC(=N)N)NC(=O)[C@@H]1CCCN1C(=O)[C@H](CCCCN)NC(=O)[C@H](CC(N)=O)NC(=O)[C@H](CCC(=O)O)NC(=O)[C@H](Cc1ccc(O)cc1)NC(=O)[C@H](CC(C)C)NC(=O)[C@H](CCC(=O)O)NC(=S)Nc1ccc2c(c1)C(=O)OC21c2ccc(O)cc2Oc2cc(O)ccc21)C(=O)N[C@@H](CC(C)C)C(=O)O` [N-FTC-[Glu^1]NT, N-fluoresceyl thiocarbamyl-[Glu^1] neurotensin], the shelf life (Stability / shelf life) was “at least one year”, the “cells displaying specific fluoro-neurotensin binding” value [1] was 97.4% and the “displacement of specific 125I-Tyr3-neurotensin binding” value (neurotensin receptor; dose dependent, Figure 4) was “completely displaces”. The pseudo-Hill coefficient (neurotensin receptor; purified brain membranes from adult male mice, 0.1 nM 125I-Tyr3-neurotensin) was “approximately 1”, the IC50 (neurotensin receptor; purified brain membranes from adult male mice, 0.1 nM monoiodo 125I-Tyr3-neurotensin, 20 minutes at 22°C, pH 7.5) was 550 pM and the “fluorescent labeling in sections incubated with an excess of unlabeled neurotensin” value (neurotensin receptors) was “no longer apparent”.
